Earlier results on 3 compounds are cited in patent US5688992A, “O-malonyltryrosyl compounds, O-malonyltryrosyl compound-containing peptides, and use thereof” (The United States of America as represented by the …, priority 1995, dated 1997).

By UniProt entry, the sequences of proteins in these tests, tags left out. Residues count along the entry.
UniProt P12931, 151-248 limits assumed: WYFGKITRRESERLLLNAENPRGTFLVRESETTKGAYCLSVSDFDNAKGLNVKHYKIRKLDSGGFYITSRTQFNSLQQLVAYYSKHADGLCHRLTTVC
UniProt P27986, 624-718 limits assumed: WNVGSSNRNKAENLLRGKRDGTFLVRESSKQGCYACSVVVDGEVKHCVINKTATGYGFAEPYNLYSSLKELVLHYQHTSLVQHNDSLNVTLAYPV
UniProt P62993, 60-152 limits assumed: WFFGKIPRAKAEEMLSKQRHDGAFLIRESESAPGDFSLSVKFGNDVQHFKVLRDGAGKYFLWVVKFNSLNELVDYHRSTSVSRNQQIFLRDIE

The structures given here were assigned with low confidence; some may be wrong.

For one series, the target named is Src SH2 domain (Homo sapiens, UniProt P12931). The settings on record: read-out: IC50 ± S.E., Src SH2 domain; X = pTyr or L-F2Pmp; previously reported (Burke 1994); cited from earlier work.
The target in series [1] is C-terminal SH2 domain of PI 3-kinase p85 (Homo sapiens, UniProt P27986). The settings on record: read-out: IC50 ± S.E., p85 (C-terminal) SH2 domain; X = pTyr or L-F2Pmp; previously reported (Burke 1994); cited from earlier work.
The next series concerns the target Grb2 SH2 domain (Homo sapiens, UniProt P62993). The settings on record: read-out: IC50 ± S.E., Grb2 SH2 domain; X = pTyr or L-F2Pmp; previously reported (Burke 1994); cited from earlier work.

For orientation: IC50 means the concentration that inhibits the measured activity by half. As for `CC[C@H](C)[C@H](NC(=O)[C@H](CCC(=O)O)NC(=O)[C@H](CCC(=O)O)NC(=O)[C@H](Cc1ccc(C(F)(F)P(=O)(O)O)cc1)NC(=O)[C@H](CCC(N)=O)NC(C)=O)C(=O)N1CCC[C@H]1C(N)=O`, at Src SH2 domain, the IC50 was 1000 nM.

In the case of `CSCC[C@H](NC(=O)[C@@H]1CCCN1C(=O)[C@@H](NC(=O)[C@H](Cc1ccc(C(F)(F)P(=O)(O)O)cc1)NC(=O)[C@H](CC(=O)O)NC(C)=O)C(C)C)C(=O)N[C@@H](CC(C)C)C(N)=O`, the IC50 in series [1] is 170 nM.

For the compound `CC[C@H](C)[C@H](NC(=O)[C@H](CC(N)=O)NC(=O)[C@@H](NC(=O)[C@H](Cc1ccc(OP(=O)(O)O)cc1)NC(=O)[C@H](CC(N)=O)NC(C)=O)C(C)C)C(=O)N[C@@H](CCC(=O)O)C(N)=O`, the IC50 at Grb2 SH2 domain is 900 nM.
